Measurements reported in PubChem BioAssay AID1259405 (NCATS, 2018)
Aim: 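Knock-downs that lift recombinant protein yield in hamster ovary cells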 (primary screen). Cell system: Chinese hamster CHO-K1 ovary cells with stable secreted eGFP expression. Reagent: single siRNA against mouse genes, 0.8 pmol siRNA per well (2 µl of 400 nM stock). Timing: 3 days. Read-out: 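Per-well intracellular GFP measured by laser scanning cytometry, plus viability from ATP luminescence, each relative to plate median of non-targeting control wells, in %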. Reading the numbers: GFP, % of control: higher = more GFP per well, higher productivity; viability (ATP), % of control: higher = more viable cells (more ATP). Rule for the call: 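a knock-down is called active if GFP reaches 120% or more of non-targeting control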.
In all, the deposit lists about 50,000 reagents; below is a random part of them. About 4,000 of them (8%) were called active. 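Mouse siRNA library applied to hamster cells; one well for each siRNA.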 A number with no mark means an inactive call. Reagents against one gene are numbered here.

| target | reagent | GFP, % of control | viability (ATP), % of control |
| --- | --- | --- | --- |
| Pigt (phosphatidylinositol glycan anchor biosynthesis, class T) | 1 | 104 | 83.9 |
| Pigt (phosphatidylinositol glycan anchor biosynthesis, class T) | 2 | 74.2 | 39.2 |
| Pigt (phosphatidylinositol glycan anchor biosynthesis, class T) | 3 | 96.1 | 0.711 |
| Tspear (thrombospondin type laminin G domain and EAR repeats) | 1 | 111 | 90.5 |
| Tspear (thrombospondin type laminin G domain and EAR repeats) | 2 | 122 (active) | 88.6 |
| Tspear (thrombospondin type laminin G domain and EAR repeats) | 3 | 92.4 | 140 |
| Or8b48 (olfactory receptor family 8 subfamily B member 48) | 1 | 89.2 | 60.2 |
| Or8b48 (olfactory receptor family 8 subfamily B member 48) | 2 | 106 | 67 |
| Or8b48 (olfactory receptor family 8 subfamily B member 48) | 3 | 75.1 | 76.2 |
| Miga2 (mitoguardin 2) | 1 | 76.7 | 55 |
| Miga2 (mitoguardin 2) | 2 | 67.1 | 79 |
| Miga2 (mitoguardin 2) | 3 | 64.8 | 76.8 |
| Tmem259 (transmembrane protein 259) | 1 | 121 (active) | 107 |
| Tmem259 (transmembrane protein 259) | 2 | 99.8 | 93.2 |
| Tmem259 (transmembrane protein 259) | 3 | 130 (active) | 100 |
| Ccp110 (centriolar coiled coil protein 110) | 1 | 43.1 | 68.2 |
| Ccp110 (centriolar coiled coil protein 110) | 2 | 119 | 85.6 |
| Ccp110 (centriolar coiled coil protein 110) | 3 | 89.9 | 95.2 |
| Vcan (versican) | 1 | 122 (active) | 146 |
| Vcan (versican) | 2 | 53.2 | 78.9 |
| Mup21 (major urinary protein 21) | 1 | 51 | 56.9 |
| Mup21 (major urinary protein 21) | 2 | 72 | 70.4 |
| Mup21 (major urinary protein 21) | 3 | 119 | 82.5 |
| Pkd1 | 1 | 120 (active) | 101 |
| Pkd1 | 2 | 54.6 | 83.6 |
| Pkd1 | 3 | 81.6 | 71.3 |
| Rnf24 (ring finger protein 24) | 1 | 73 | 83.8 |
| Rnf24 (ring finger protein 24) | 2 | 59.7 | 69.4 |
| Rnf24 (ring finger protein 24) | 3 | 61.9 | 63.5 |
| Rassf6 (Ras association (RalGDS/AF-6) domain family member 6) | 1 | 80.5 | 67.2 |
| Rassf6 (Ras association (RalGDS/AF-6) domain family member 6) | 2 | 82.8 | 81.3 |
| Rassf6 (Ras association (RalGDS/AF-6) domain family member 6) | 3 | 61 | 49.7 |
| Cldn8 (claudin 8) | 1 | 56.2 | 54.7 |
| Cldn8 (claudin 8) | 2 | 97.9 | 45.8 |
| Cldn8 (claudin 8) | 3 | 101 | 78.4 |
| Glcci1 (glucocorticoid induced transcript 1) | 1 | 35.3 | 81.6 |
| Glcci1 (glucocorticoid induced transcript 1) | 2 | 61.6 | 94.3 |
| Glcci1 (glucocorticoid induced transcript 1) | 3 | 129 (active) | 86.5 |
| Endov (endonuclease V) | 1 | 136 (active) | 65.3 |
| Endov (endonuclease V) | 2 | 55 | 30.8 |
| Endov (endonuclease V) | 3 | 107 | 113 |

The list goes on (8 carried over from the part before).
| target | reagent | GFP, % of control | viability (ATP), % of control |
| --- | --- | --- | --- |
| Cldn8 (claudin 8) | 2 | 97.9 | 45.8 |
| Cldn8 (claudin 8) | 3 | 101 | 78.4 |
| Glcci1 (glucocorticoid induced transcript 1) | 1 | 35.3 | 81.6 |
| Glcci1 (glucocorticoid induced transcript 1) | 2 | 61.6 | 94.3 |
| Glcci1 (glucocorticoid induced transcript 1) | 3 | 129 (active) | 86.5 |
| Endov (endonuclease V) | 1 | 136 (active) | 65.3 |
| Endov (endonuclease V) | 2 | 55 | 30.8 |
| Endov (endonuclease V) | 3 | 107 | 113 |
| Slu7 (SLU7 splicing factor homolog (S. cerevisiae)) | 1 | 76.1 | 45.5 |
| Slu7 (SLU7 splicing factor homolog (S. cerevisiae)) | 2 | 89 | 78.9 |
| Slu7 (SLU7 splicing factor homolog (S. cerevisiae)) | 3 | 55.2 | 25.9 |
| Zfp943 (zinc finger prtoein 943) | 1 | 108 | 78.3 |
| Zfp943 (zinc finger prtoein 943) | 2 | 44.8 | 51.6 |
| Zfp943 (zinc finger prtoein 943) | 3 | 104 | 101 |
| Spats2l (spermatogenesis associated, serine-rich 2-like) | 1 | 32.5 | 48.6 |
| Spats2l (spermatogenesis associated, serine-rich 2-like) | 2 | 56.4 | 70.6 |
| Spats2l (spermatogenesis associated, serine-rich 2-like) | 3 | 58 | 48.5 |
| Trim12c (tripartite motif-containing 12C) | 1 | 76 | 71.8 |
| Trim12c (tripartite motif-containing 12C) | 2 | 109 | 90.3 |
| Trim12c (tripartite motif-containing 12C) | 3 | 115 | 111 |
| Snx9 (sorting nexin 9) | 1 | 75.9 | 106 |
| Snx9 (sorting nexin 9) | 2 | 68.6 | 70.4 |
| Mcm7 (minichromosome maintenance complex component 7) | 1 | 138 (active) | 127 |
| Mcm7 (minichromosome maintenance complex component 7) | 2 | 76.4 | 83.5 |
| Mcm7 (minichromosome maintenance complex component 7) | 3 | 113 | 75.9 |
| Epyc (epiphycan) | 1 | 64.2 | 31.5 |
| Epyc (epiphycan) | 2 | 77.8 | 98.5 |
| Epyc (epiphycan) | 3 | 89 | 100 |
| Nfe2 (nuclear factor, erythroid derived 2) | 1 | 105 | 80.1 |
| Nfe2 (nuclear factor, erythroid derived 2) | 2 | 31.4 | 32.2 |
| Nfe2 (nuclear factor, erythroid derived 2) | 3 | 74.5 | 118 |
| Myo9b (myosin IXb) | 1 | 74.6 | 55.2 |
| Myo9b (myosin IXb) | 2 | 50.5 | 55 |
| Ddx52 (DExD box helicase 52) | 1 | 88 | 86.1 |
| Ddx52 (DExD box helicase 52) | 2 | 194 (active) | 161 |
| Or51f23 (olfactory receptor family 51 subfamily F member 23) | 1 | 99.3 | 87.5 |
| Or51f23 (olfactory receptor family 51 subfamily F member 23) | 2 | 155 (active) | 68.2 |
| Or51f23 (olfactory receptor family 51 subfamily F member 23) | 3 | 56 | 76.9 |
| Or51f23 (olfactory receptor family 51 subfamily F member 23) | 4 | 68.2 | 98.7 |
| Or51f23 (olfactory receptor family 51 subfamily F member 23) | 5 | 130 (active) | 79.6 |
| Or51f23 (olfactory receptor family 51 subfamily F member 23) | 6 | 134 (active) | 96 |
| Gm57858 (gene model 57858) | 1 | 34.1 | 87.5 |
| Gm57858 (gene model 57858) | 2 | 73.5 | 75 |
| Gm57858 (gene model 57858) | 3 | 121 (active) | 107 |
| Wdr4 (WD repeat domain 4) | 1 | 95.8 | 64.3 |
| Wdr4 (WD repeat domain 4) | 2 | 77.8 | 85.8 |
| Wdr4 (WD repeat domain 4) | 3 | 91.3 | 87.8 |
| Ikbke (inhibitor of kappaB kinase epsilon) | 1 | 58.7 | 72.7 |
| Ikbke (inhibitor of kappaB kinase epsilon) | 2 | 78.8 | 62.8 |
| Ikbke (inhibitor of kappaB kinase epsilon) | 3 | 122 (active) | 122 |
| Sh2d1b1 (SH2 domain containing 1B1) | 1 | 73 | 88.2 |
| Sh2d1b1 (SH2 domain containing 1B1) | 2 | 98.2 | 101 |
| Sh2d1b1 (SH2 domain containing 1B1) | 3 | 164 (active) | 53.4 |
